Some of the results follow. The main result of the screen is listed elsewhere. These columns were measured beside it and carry no call. The list favours compounds with an active or inconclusive main result. The note in brackets gives the kind of curve behind each potency; many fits are weak.
Test: qHTS Assay for Lipid Storage Modulators in Drosophila S3 Cells;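 for cell number change: cells counted by Cell Tracker Red CMTPX staining in the red channel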
Conditions: BODIPY lipid droplet fluorescence, 18-24 h; for cell number change: measured here: cell count max response, cells fed with added oleic acid
How it was run: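 Drosophila S3 cells got compounds at several concentrations plus oleic acid (400 uM solution). Laser-scanning cytometry with 488 nm excitation read lipid droplets at 500-530 nm and cells at 575-640 nm. Percent activity was relative to 20 uM Triacsin C.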

[1] = measured here: cell number channel AC50, cells fed with added oleic acid
[2] = measured here: lipid fluorescence (Fed channel) AC50, cells fed with added oleic acid

SMILES	AC50 [1]	AC50 [2]	cell number change
Cc1nn(-c2ccccc2)c(C)c1NC(=O)COC(=O)C1CC(=O)N(CCc2ccccc2)C1 (configuration not stated)	6.51 µM [rising, partial curve, poor fit]	0.461 µM [falling, single point]	–
Cc1ccc(-n2nc3c(=O)n(CC(=O)NCc4ccccc4)nc(C)c3c2C)cc1	0.82 µM [rising, full curve, poor fit]	–	43.2%
COc1ccc(-c2c(-c3ccc(OCC(=O)NN)cc3O)n[nH]c2C(F)(F)F)cc1	–	32.6 µM [falling, partial curve, poor fit]	-17.1%
CCOC(=O)/C(=N\Nc1ccc(C(C)=O)cc1)c1csc(Nc2ccccc2)n1	–	29.1 µM [falling, single point]	–
Cc1ccc(-n2nnnc2SCC(=O)N2c3ccccc3NC(=O)C2(C)C)cc1	18.4 µM [falling, single point]	–	-30.7%
Cc1cccc(NC(=S)N2CCN(c3ccccn3)CC2)c1	–	0.116 µM [rising, full curve, poor fit]	–
CSc1ncc(C(C)=O)c(C)n1	–	18.4 µM [falling, partial curve]	-28.4%
CC1=CC(C)(C)[N+](C)=CN1c1ccccc1	1.03 µM [falling, full curve, poor fit]	0.92 µM [falling, full curve]	-30.1%
COc1cc(C(=O)NCCC2=CCCCC2)cc(OC)c1OC	29.1 µM [rising, single point]	–	46.7%
O=S(=O)(Nc1ccc(Oc2ncccn2)c(Cl)c1)c1ccc(Cl)cc1	–	–	11.4%
Cc1cccc(CCN2C(N(C)C)=NC[C@@H]2C)c1	–	0.651 µM [falling, single point]	12.2%
CCn1c(SCC(=O)c2c(N)n(C3CC3)c(=O)[nH]c2=O)nnc1-c1ccccc1OC	0.00461 µM [rising, full curve, poor fit]	0.731 µM [rising, partial curve, poor fit]	-16.3%
COc1ccccc1NC(=O)CCSc1nnnn1C	0.13 µM [falling, partial curve, poor fit]	–	9.82%
CC1=CCC2C(=O)N(Cc3ccccc3)C(=O)C2C1 (configuration not stated)	0.164 µM [rising, full curve]	–	–
C=CCn1c(SC(C)C(=O)c2c(N)n(C)c(=O)n(C)c2=O)nnc1-c1ccoc1C (configuration not stated)	29.1 µM [falling, single point]	18.4 µM [falling, single point]	-41.6%
Cc1cc(C)c2cc(C#N)c(SCC(=O)Nc3cc(C)on3)nc2c1	6.51 µM [rising, single point]	5.17 µM [falling, partial curve]	1.28%

3 neighbouring compounds from above:
SMILES	AC50 [1]	AC50 [2]	cell number change
Cc1cccc(CCN2C(N(C)C)=NC[C@@H]2C)c1	–	0.651 µM [falling, single point]	12.2%
CCn1c(SCC(=O)c2c(N)n(C3CC3)c(=O)[nH]c2=O)nnc1-c1ccccc1OC	0.00461 µM [rising, full curve, poor fit]	0.731 µM [rising, partial curve, poor fit]	-16.3%
COc1ccccc1NC(=O)CCSc1nnnn1C	0.13 µM [falling, partial curve, poor fit]	–	9.82%
